Source: patent US20240307372A1, “COMPOSITIONS AND METHODS TO IMPROVE BENEFIT OF SUBOPTIMALLY ADMINISTERED THERAPEUCTICS FOR THE TREATMENT OF BENIGN AND NEOPLASTIC DISEASES, INFECTIONS, INFLAMMATORY, METABOLIC AND IMMUNOLOGIAL DISEASES” (priority 2023, published 2024)

System: K562 cells
Test: Protein concentration in K562 cell lysate after Tetrandrine exposure (BCA protein assay)
Assay type: cell-based, human
Settings: 24 hours

Substance: 6,6′,7,12-tetramethoxy-2,2′-dimethyl-berbaman [ES-3000]
- Protein Recovered (0.1 μM): 1.1 mg
- Protein Recovered (1 μM): 1.1 mg
- Protein Recovered (5 μM): 1.0 mg
- Protein Recovered (10 μM): 1.1 mg
- Protein Recovered (20 μM): 1.0 mg
- Protein Recovered (40 μM): 0.9 mg
